Publication PMC8748641

The chains behind the UniProt entries cited, without tags or fusion partners. Where a name states a change or a piece, a line headed by the entry shows the natural chain unless it says otherwise.
UniProt Q94KK6: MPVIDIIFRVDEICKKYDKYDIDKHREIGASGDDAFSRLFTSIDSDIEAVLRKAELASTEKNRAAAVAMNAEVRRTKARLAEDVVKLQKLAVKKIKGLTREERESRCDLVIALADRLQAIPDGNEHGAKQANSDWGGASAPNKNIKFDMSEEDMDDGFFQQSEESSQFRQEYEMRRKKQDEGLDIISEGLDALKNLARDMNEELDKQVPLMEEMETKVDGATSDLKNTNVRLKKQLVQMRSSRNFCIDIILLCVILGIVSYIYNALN

Biological target: MBP-SYP72 (Arabidopsis thaliana) (UniProt Q94KK6)
Assay: pull-down; MBP-SYP72 from E. coli on Ni-NTA His Bind resin; MSL8-6×Myc in total protein of infiltrated N. benthamiana leaves; blots with anti-MBP and anti-Myc; only the target purified

B1: MSL8-6×Myc (35S:MSL8-6×Myc, N. benthamiana leaves) (protein, UniProt F4IME2 1-908)
chain: MDFRNSFKSHSSYKQIRSPGDQSEPSPEHLPILHDHHPDHSGMVVDDQKPDSTRSSLDDGRNAPVERDASYKFWQDNTTGTSTDHTAVRTSDKDPIAISRKGDRLSGSFDFVHGKLPVDESPTKMVAGEPVNRQWRGRNNEEITLDVDQENDDVSHQTMPTPTSTARTSFDASREMRVSFNVRRAGGAFVAGSVPSSSSHSSSSSSATMRTNQDQPQLQEEEVVRCTSNMSFQRKSELISRVKTRSRLQDPPREEETPYSGWRSGQLKSGLLADIDEEDDPLAEEDVPDEYKRGKLDAITLLQWLSLVAIIAALACSLSIQSWKKVRVWNLHLWKWEVFLLVLICGRLVSGWGIRIVVFFIERNFLLRKRVLYFVYGVRRAVQNCLWLGLVLLAWHFLFDKKVQRETRSRFLPYVTKILVCFLLSTILWLIKTLVVKVLASSFHVSTYFDRIQEALFNQYVIETLSGPPMIEMSRIEEEEERAQDEIFKMQNAGANLPPDLCAAAFPPGKSGRVMNPKLSPIIPKSTTDNGISMEHLHRMNHKNISAWNMKRLMKIVRNVSLTTLDEQMLESTYEDESTRQIRSEKEAKAAARKIFKNVEQRGAKYIYLEDLMRFLREDEAMKTMGLFEGAPENKRISKSALKNWLVNAFRERRALALTLNDTKTAVNKLHHMINIVTAIVIVVIWLVLLEIASSKVLLFVSSQVVLLAFIFGNTVKTVFESIIFLFIVHPYDVGDRCEIDSVQLVVEEMNILTTVFLRYDNLKIMYPNSLLWQKSINNYYRSPDMGDAIEFCVHITTPLEKISVIKQRISNYIDNKPEYWYPQAKIIVKDLEDLHIVRLAIWPCHRINHQDMAERWTRRAVLVEEVIKILLELDIQHRFYPLDINVRTMPTVVSSRVPPGWSQNQPA
  binding: binds

No constants are given. Whether binding was seen depends on the method and setting. Binding seen in cells or lysates may run through a third protein. Binding calls can cover weak binding; strength is not graded here. Tags and fused reporters may be left off the sequences shown.
